Measurements reported in patent US10941137B2, “Difluoromethyl-phenyl triazoles” (Boehringer Ingelheim International GmbH, priority 2018, dated 2021).
The match of structure and compound is tentative.

Protein sequences, listed by entry. Tags and fused reporters are not part of them. Residues count along the entry.
UniProt P18507, whole entry: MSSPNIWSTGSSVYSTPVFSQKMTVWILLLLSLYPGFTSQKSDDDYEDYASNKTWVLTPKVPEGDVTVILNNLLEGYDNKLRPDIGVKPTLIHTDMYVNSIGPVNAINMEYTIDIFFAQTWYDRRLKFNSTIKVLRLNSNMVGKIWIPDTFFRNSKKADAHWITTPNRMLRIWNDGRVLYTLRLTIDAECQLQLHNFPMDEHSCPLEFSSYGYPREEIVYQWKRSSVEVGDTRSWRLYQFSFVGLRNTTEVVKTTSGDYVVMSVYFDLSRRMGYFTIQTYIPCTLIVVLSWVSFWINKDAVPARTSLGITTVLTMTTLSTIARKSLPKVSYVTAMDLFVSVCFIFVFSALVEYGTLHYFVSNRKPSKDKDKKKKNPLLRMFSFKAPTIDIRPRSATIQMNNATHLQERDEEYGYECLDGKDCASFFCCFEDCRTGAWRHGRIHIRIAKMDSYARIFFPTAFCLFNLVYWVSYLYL
UniProt P18507, 40-376 limits assumed: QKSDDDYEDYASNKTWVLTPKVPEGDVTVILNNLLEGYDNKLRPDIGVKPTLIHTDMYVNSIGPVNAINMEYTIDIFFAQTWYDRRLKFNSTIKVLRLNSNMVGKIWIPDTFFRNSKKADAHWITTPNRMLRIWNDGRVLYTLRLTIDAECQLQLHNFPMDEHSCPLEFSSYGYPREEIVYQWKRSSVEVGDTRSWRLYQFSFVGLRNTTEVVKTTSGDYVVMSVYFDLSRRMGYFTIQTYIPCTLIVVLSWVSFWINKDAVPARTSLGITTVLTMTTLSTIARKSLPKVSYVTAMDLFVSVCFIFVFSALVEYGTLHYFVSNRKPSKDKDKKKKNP
UniProt P31644, whole entry: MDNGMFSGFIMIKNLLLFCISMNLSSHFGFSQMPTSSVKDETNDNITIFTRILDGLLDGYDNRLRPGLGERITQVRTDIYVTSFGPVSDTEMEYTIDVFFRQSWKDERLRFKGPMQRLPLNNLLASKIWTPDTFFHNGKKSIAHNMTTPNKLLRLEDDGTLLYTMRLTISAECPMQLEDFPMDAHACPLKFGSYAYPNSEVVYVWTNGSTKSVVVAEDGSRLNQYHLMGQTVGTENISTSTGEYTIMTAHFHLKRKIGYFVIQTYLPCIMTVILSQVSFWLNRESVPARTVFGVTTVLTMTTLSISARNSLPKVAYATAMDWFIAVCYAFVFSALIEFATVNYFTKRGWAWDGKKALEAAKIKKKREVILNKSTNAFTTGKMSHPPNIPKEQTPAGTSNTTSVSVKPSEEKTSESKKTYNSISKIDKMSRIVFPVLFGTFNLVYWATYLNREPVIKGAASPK
UniProt P31644, 32-462 limits assumed: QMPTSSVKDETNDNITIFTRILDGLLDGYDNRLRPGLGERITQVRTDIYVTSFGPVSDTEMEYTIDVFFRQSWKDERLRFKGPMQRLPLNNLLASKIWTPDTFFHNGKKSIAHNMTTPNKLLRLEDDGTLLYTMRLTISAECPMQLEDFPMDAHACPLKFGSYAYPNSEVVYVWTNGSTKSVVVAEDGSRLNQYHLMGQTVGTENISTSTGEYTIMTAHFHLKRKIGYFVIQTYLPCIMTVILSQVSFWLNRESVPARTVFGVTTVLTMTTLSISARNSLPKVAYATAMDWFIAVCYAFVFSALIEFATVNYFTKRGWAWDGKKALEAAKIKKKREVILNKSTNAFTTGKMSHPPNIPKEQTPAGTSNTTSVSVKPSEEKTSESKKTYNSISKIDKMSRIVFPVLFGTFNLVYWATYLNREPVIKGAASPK

Key:
[1] = Metabolic stability in human liver microsomes (Human MST); format: in vitro ADME; details: human liver microsomes 1 mg/mL, 1 μM compound, NADPH 1 mM, 37° C.
Description: Assessment of Metabolic Stability in Human Liver Microsomes (Human MST) The metabolic stability of the compounds according to the invention may be investigated as follows: The metabolic degradation of the test compound is assayed at 37° C. with pooled human liver microsomes. The final incubation volume of 100 μL per time point contains TRIS buffer pH 7.6 at room temperature (0.1 M), MgCl2 (5 mM), microsomal protein (1 mg/mL) and the test compound at a final concentration of 1 μM. Following a short pre-incubation period at 37° C., the reactions are initiated by addition of beta-nicotinamide adenine dinucleotide phosphate, reduced form (NADPH, 1 mM), and terminated by transferring an aliquot into solvent after different time points. After centrifugation (10000 g, 5 min), an aliquot of the supernatant is assayed by LCMS/MS for the amount of parent compound. The half-life (t½) is determined by the slope of the semi-logarithmic plot of the concentration-time profile.

[2] = molecular target: α5β2γ2 GABAA receptor (Homo sapiens, UniProt P18507+P31644); assay: Assay B: modulation of α5β2γ2 GABAA receptor, two-electrode voltage clamp in oocytes; details: read-out: Assay B: GABAA α5β3γ2 EC50, TEVC, co-application with GABA 0.5 μM (EC5-20)
[3] = molecular target: human GABAA α5β3γ2s receptor (Homo sapiens, UniProt P18507+P31644); assay: Assay A: in vitro inhibition of 3H-flumazenil binding, HEK cells expressing human GABAA α5β3γ2s receptor; details: read-out: Assay A: GABAA α5β3γ2s Ki; 3H-flumazenil 1 nM, HEK-293 membranes, 40 min at 2° C.; Ki from IC50 by Cheng and Prusoff

## Cc1nnn(-c2ccc(C(F)F)cc2)c1COc1ccc(-n2ncnc2N)nn1
[1]
  Human MST t1/2: >2.17 h
[2]
  EC50: 2.4 nM
[3]
  Ki: 0.07 nM
